Among the data in article PMC3749136 are binding values, retold here.

Chains of the proteins cited; added tags and fusions are not shown. Lines headed by an entry give the natural chain unless they say otherwise; changes in a name come on top.
UniProt O60674: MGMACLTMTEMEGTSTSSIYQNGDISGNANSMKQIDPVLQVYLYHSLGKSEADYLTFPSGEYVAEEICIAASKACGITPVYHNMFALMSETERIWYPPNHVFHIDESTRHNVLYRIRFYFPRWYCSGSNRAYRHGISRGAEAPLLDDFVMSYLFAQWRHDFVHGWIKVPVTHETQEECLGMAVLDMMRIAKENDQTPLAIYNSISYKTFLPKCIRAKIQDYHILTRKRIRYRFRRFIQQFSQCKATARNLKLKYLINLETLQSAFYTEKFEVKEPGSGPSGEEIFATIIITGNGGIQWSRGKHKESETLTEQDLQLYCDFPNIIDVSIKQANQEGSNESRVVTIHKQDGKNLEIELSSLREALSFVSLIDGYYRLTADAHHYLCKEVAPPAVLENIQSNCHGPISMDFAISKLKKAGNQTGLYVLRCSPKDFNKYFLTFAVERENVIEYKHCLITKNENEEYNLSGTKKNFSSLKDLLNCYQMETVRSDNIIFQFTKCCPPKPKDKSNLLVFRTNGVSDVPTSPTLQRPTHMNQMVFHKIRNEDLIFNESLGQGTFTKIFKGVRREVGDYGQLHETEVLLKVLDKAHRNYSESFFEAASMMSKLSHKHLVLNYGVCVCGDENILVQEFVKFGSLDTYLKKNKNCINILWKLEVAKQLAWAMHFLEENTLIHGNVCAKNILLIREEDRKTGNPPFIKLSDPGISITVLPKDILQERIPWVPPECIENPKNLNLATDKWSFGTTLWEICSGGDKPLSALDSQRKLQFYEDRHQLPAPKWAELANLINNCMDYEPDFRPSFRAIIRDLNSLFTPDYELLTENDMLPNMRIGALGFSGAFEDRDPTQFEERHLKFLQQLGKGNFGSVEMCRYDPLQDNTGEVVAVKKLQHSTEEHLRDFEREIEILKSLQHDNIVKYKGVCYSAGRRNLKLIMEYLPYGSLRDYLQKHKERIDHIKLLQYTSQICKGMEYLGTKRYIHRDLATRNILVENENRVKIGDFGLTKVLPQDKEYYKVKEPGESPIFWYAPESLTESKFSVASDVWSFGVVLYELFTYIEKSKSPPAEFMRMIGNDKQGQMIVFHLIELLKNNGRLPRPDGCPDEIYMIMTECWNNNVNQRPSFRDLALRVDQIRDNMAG

These are yes or no findings as the source states them, for the method shown. Binding calls can cover weak binding; strength is not graded here.

The assay addresses JAK2 JH1 domain (UniProt O60674). Description: SPR; JAK1 and JAK2 JH1 domains immobilised on the chip, SOCS5 175-244 flowed over; non-specific binding of SOCS5 175-244 to the reference surface precluded quantitative analysis; both purified. For orientation: Surface plasmon resonance follows binding to a sensor surface in real time, without labels.

B1: SOCS5 175–244 fragment (domain or fragment, UniProt O54928 175-244)
chain: RSLRQRLQDTVGLCFPMRTYSKQSKPLFSNKRKIHLSELMLEKCPFPAGSDLAQKWHLIKQHTAPVSPHS
For B1, the binding result is given as “binds”.
